This note sets out measurements from article PMC8213698.

Results are given in words; binding and its absence hold for the method and conditions named. In cells and extracts the contact can be indirect. A result given as binding can be weak or reduced; the word gives no strength.

For the assay, the target named is T1, Irisin (UniProt Q8NAU1).
T1 sequence: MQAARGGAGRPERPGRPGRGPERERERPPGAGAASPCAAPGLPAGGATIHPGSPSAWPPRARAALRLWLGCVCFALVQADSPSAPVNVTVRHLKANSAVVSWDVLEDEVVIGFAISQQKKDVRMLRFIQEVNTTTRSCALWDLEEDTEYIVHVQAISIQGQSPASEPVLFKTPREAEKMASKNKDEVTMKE
In words: co-IP; lysate of BM-MSCs (Irisin-overexpressing against negative controls) in immunoprecipitation buffer with DNase I and protease inhibitors; 5 µg antibody against Irisin or Integrin αV at 4 °C overnight, Protein A agarose beads 2 h at room temperature; SDS-PAGE and WB.

As for “Integrin αV (human (endogenous in BM-MSCs)) (receptor)”, the binding entry was “binds”.
